The target of test [1] is CD73 on cynomolgus macaques CD3+CD8+ T cells (cynomolgus macaques). The test can be described thus: flow cytometry on cynomolgus macaque PBMC (donor 1132F), gated on CD3+CD8+ T cells, DyLight488 secondary antibody.
Test [2] has the same target. The test can be described thus: flow cytometry on cynomolgus macaque PBMC. (Flow cytometry measures light scatter and fluorescence of single cells or particles in a stream.)

One molecule from patent US20230312739A1 (BIOTHEUS, published 2023) can be followed below.

No constants are given. Whether binding was seen depends on the method and setting. Some binding calls cover weakened binding; strength is not graded here.

B1: murine antibody 13D12 (antibody, V domains shown)
VH: DVKLQESGPAMVKPSQSLSLTCTVTGYSITSGYDWHWIRLFPGNKLEWMGYISYSGYTDYSPSLKSRISITHDTSKNHFFLKLHSVTTEDTATYYCTRGDHSYAMDYWGQGTSVTVS
VL: DIVMTQSHKFMSTSVGDRVSITCKASQAVGTAVAWYQQKPGQSPKLLIYWASSRHTGVPDRFTGSRSGTDFTLTISSVQSEDLADYFCQQYSSYPLTFGGGTNLEIK
notes: Mouse monoclonal antibody purified from hybridoma supernatant; also called mouse monoclonal antibody 13D12
Take B1: the binding entry in test [1] and in test [2] was “binds” each time.
